In paper PMC6561952:
Results are given in words; binding and its absence hold for the method and conditions named. Some entries that bind do so weakly or less than the wild type.

By UniProt entry, the sequences of proteins in these tests, tags left out. Where a name states a change or a piece, a line headed by the entry shows the natural chain unless it says otherwise. Residues count along the entry.
UniProt P35613, residues 138-325: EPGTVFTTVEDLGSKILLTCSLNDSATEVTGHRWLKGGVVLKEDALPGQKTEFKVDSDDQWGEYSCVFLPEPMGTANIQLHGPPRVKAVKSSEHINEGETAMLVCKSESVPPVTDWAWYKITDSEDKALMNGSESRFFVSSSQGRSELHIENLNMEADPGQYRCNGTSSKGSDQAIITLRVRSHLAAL
UniProt Q9BWQ6: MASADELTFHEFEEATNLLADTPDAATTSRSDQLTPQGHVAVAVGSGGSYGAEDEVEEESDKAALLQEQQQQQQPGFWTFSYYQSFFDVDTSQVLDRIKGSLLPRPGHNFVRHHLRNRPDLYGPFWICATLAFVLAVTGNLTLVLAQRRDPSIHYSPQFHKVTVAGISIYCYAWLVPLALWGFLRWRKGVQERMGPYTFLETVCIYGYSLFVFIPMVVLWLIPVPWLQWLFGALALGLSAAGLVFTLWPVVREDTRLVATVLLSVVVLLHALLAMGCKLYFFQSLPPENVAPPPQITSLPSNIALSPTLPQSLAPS

Molecular target: EpoR/LR-F3/CD147EP chimera receptor (extracellular portion of CD147 as MAPPIT bait) (UniProt P35613)
Assay: two-hybrid; analytical MAPPIT: HEK293T cells co-transfected with bait plasmid (pSEL1/CD147EP or pSEL1/CD147IP), prey plasmid (pMG1/YIPF2) or mock and the reporter pXP2d2-rPAP1-luci; EPO 5 ng/mL for 24 h or not stimulated; luciferase, positive if ES/NS > 5

YIPF2 prey of analytical MAPPIT (pMG1/YIPF2) (from UniProt Q9BWQ6 1-316)
binding: binds
